The source of these data is publication PMC7974533.

Chains of the proteins cited; added tags and fusions are not shown.
UniProt P32856, whole entry: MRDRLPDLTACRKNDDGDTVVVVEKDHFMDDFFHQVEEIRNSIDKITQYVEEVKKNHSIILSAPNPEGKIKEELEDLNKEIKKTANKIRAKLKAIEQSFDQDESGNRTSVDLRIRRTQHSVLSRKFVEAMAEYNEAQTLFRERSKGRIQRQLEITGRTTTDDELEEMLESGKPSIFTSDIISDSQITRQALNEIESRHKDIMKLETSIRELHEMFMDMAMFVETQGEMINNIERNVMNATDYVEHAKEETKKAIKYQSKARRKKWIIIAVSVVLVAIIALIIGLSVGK

These are yes or no findings as the source states them, for the method shown. Binding seen in cells or lysates may run through a third protein. Here binding means that the protein was enriched with, or labelled near, the bait; the list need not be complete.

In this assay the target is Syntaxin 2 (UniProt P32856). Briefly: affinity purification with mass spectrometry.

Regarding Rab8a (from UniProt P61006 1-207), the binding entry is listed as “binds”.
